Some of the results follow.

Protein sequences, listed by entry. Tags and fused reporters are not part of them.
UniProt Q0JBA9, entry or part of it: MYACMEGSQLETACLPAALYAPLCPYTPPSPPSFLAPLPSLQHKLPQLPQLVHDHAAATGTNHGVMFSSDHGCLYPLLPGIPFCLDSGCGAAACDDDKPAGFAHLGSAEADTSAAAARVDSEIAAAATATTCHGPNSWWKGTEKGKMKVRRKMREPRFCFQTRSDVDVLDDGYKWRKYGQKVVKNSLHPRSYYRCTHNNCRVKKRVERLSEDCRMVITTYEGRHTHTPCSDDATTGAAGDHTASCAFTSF

This assay has as its target OsWRKY34 (Oryza sativa, UniProt Q0JBA9 1-250). Description: protein-binding microarray (RPBM); PBS, 2% BSA, 51.3 ng/ul salmon testes DNA, 50 uM zinc acetate, 200 nM TF, 25 C, 1 h; high values mean tight binding. The settings on record: protein: recombinant; tags: N-terminal polyhistidine and DsRed monomer fusion (pET32a); label: CyDye5-dUTP incorporated in the synthesized complementary strand; 3' TTTTT single-stranded linker to array surface; dsDNA, one strand shown. The procedure, abridged:
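Transcription factors were made in E. coli BL21-CodonPlus as N-terminal fusions to a polyhistidine tag and DsRed, then purified on Ni–NTA. After primer extension with Cy5-dUTP and blocking with 2% BSA, a custom Agilent array was exposed for 1 h at 25 °C to 200 nM protein in PBS, 2% BSA, salmon testes DNA and 50 µM zinc acetate. Washed arrays were scanned on an Axon 4000B, and the binding signal is per-feature fluorescence intensity in arbitrary units.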
For “ATTCCTAATGTTTGACTGACAGGTGGGGTCTGGTGAATTCCGGAGTCACCTAGTGCAG”, the binding signal was 8290 fluorescence intensity (a.u.).
Then “GCATCGTTCTCGTCGATTCCGAGCCCTCGTCGCGCATTTCCGGAGTCACCTAGTGCAG”, with 10100 fluorescence intensity (a.u.); and “ATGCTTTGTTGACCTGTGGTCAATTTGTGTTTTTAGCCATCGGAGTCACCTAGTGCAG”, with 9080 fluorescence intensity (a.u.).
Then “CCATTTTCGGCCCATTCCTTCCTCTTCTCTCTCCCTTGCGCGGAGTCACCTAGTGCAG”, with 8200 fluorescence intensity (a.u.); and “TCACCTGGTCAGAACACATCTTCTTCCTCTTGCCAATTAACGGAGTCACCTAGTGCAG”, with 8080 fluorescence intensity (a.u.); and “GTCGGCGCCCATAGTTTTTTTCCGCAAGGGTTTTCTACGTCGGAGTCACCTAGTGCAG”, with 8810 fluorescence intensity (a.u.).
In the case of “GGGTTACGACTCCGACCAACCTCGCCGTCGCCAAGCTCGCCGGAGTCACCTAGTGCAG” it was 8090 fluorescence intensity (a.u.); in that of “CCTCTTTTAGCATTTACCATCATTGCGTTCTATATTACATCGGAGTCACCTAGTGCAG”, 8200 fluorescence intensity (a.u.); in that of “CTCTCTCCTACTGTAGGCCACCACCACCGCGACCGCACGACGGAGTCACCTAGTGCAG”, 9340 fluorescence intensity (a.u.).
On to “AAAAATGACCAACGCAACTGTATTAGCGTGTGCTATCCACCGGAGTCACCTAGTGCAG”, for which the binding signal was 9390 fluorescence intensity (a.u.).
Then “CTCTCTCTCTCTCTCTCTATCTATCTGATCGTTAATCCTTCGGAGTCACCTAGTGCAG”, with 10200 fluorescence intensity (a.u.); and “GCACTGTTTCTCAAGTTCTTGTATATTGGTCTGATTCTGTCGGAGTCACCTAGTGCAG”, with 8880 fluorescence intensity (a.u.); and “CCGCTCGTCTTATTTGAAATTTTTCTATGATTAGTATTTTCGGAGTCACCTAGTGCAG”, with 10300 fluorescence intensity (a.u.).
In the case of “CTGATCTTTTCTTTTTTCAGGTGTTTTGTTTTTGGCAGTACGGAGTCACCTAGTGCAG” it was 10600 fluorescence intensity (a.u.); in that of “TAAGTACAGTTTTACACTATTCACGTCCAACGTTTGACCGCGGAGTCACCTAGTGCAG”, 9900 fluorescence intensity (a.u.).
As to “GAGCAATTTCCTTTTTTTTTAACCTGCTTTTTCTCTCTCTCGGAGTCACCTAGTGCAG”, the binding signal is 9440 fluorescence intensity (a.u.).
As for “CATCCTTCATCGTAGCACCCGTTTCTACCTACGCATTTTCCGGAGTCACCTAGTGCAG”, the binding signal is 12500 fluorescence intensity (a.u.).
Then “ACTTCCACACGGTGATCTGCAACTCAAAGTACTATCAGAACGGAGTCACCTAGTGCAG”, with 8180 fluorescence intensity (a.u.); and “ATGATCAGATCACGTGCCTATGCAGAGCATCTTCTTGGTTCGGAGTCACCTAGTGCAG”, with 8040 fluorescence intensity (a.u.); and “CCTTGTGGACACTTGTATTTGTCATGGGGTTTATAAAAAACGGAGTCACCTAGTGCAG”, with 8420 fluorescence intensity (a.u.).
On to “TGGTACGTCATCCGTGTATGAGTCGGTTATTAAGTTTGTTCGGAGTCACCTAGTGCAG”, for which the binding signal is 8690 fluorescence intensity (a.u.).
In the case of “CTCGTCGGCTGGGTGGGTGTGGTGTGGGTGGCCACCGTCACGGAGTCACCTAGTGCAG” it was 15000 fluorescence intensity (a.u.); in that of “AGTTGGATTTGCGGCTTTGGAAACTTTCTAGCTTCACTACCGGAGTCACCTAGTGCAG”, 8680 fluorescence intensity (a.u.); in that of “TGCTTTGCGTGTTTGTCTTTCAGGGTAGCTTTGAGGCTTTCGGAGTCACCTAGTGCAG”, 9440 fluorescence intensity (a.u.).
In the case of “CGTTGTCATTCATAGTGGTAGGTTCTCAGTTTTGCACTGACGGAGTCACCTAGTGCAG” it was 10700 fluorescence intensity (a.u.); in that of “AGTTATCCTGTTCCCACGTAATGCTGTTATGTAGATTTTCCGGAGTCACCTAGTGCAG”, 12200 fluorescence intensity (a.u.); in that of “TGTTACATATTTCGCTTTTTTAACTTCCACTCCTATTATTCGGAGTCACCTAGTGCAG”, 11900 fluorescence intensity (a.u.).
In the case of “ATCCGCTTGTTCCTAGTTATTAATTAATTATCTTTTAAAACGGAGTCACCTAGTGCAG” it was 8710 fluorescence intensity (a.u.); in that of “TGGGTCACTGTAATTTTCCTTTCGTACACATTTGGTCGCTCGGAGTCACCTAGTGCAG”, 9260 fluorescence intensity (a.u.); in that of “TCATCCTAGAACATCCATCAGATTGCTACATTCTGTCTAACGGAGTCACCTAGTGCAG”, 8040 fluorescence intensity (a.u.).
Turning to “TTCATGTTTTTACTCTTTTTATATATCATAAGCTTTGATTCGGAGTCACCTAGTGCAG”, the binding signal is 8250 fluorescence intensity (a.u.).
In the case of “CGTTTGATAGGCCATAGCCAATAATCTTCATGTTTCTTTCCGGAGTCACCTAGTGCAG” it was 9430 fluorescence intensity (a.u.); in that of “CCTCTCTATTTCTCTCGTCAACAATTAGCGCTCTCTATTCCGGAGTCACCTAGTGCAG”, 10100 fluorescence intensity (a.u.); in that of “GGCAGCCGTGATCTTTGCGAGCATTCTTTCTTCCACTTAGCGGAGTCACCTAGTGCAG”, 9640 fluorescence intensity (a.u.).
As for “GCTAGCCAAATTGTGGTTTTATTTCATTGGCCAAAACTGTCGGAGTCACCTAGTGCAG”, the binding signal was 8160 fluorescence intensity (a.u.).
Then “TATAAGAGCTCACGCGGCCATGTCGTTCTTCGCGCGCGCTCGGAGTCACCTAGTGCAG”, with 12700 fluorescence intensity (a.u.).
Then “AACCGCTTACATCATATATTATATTATTTTACTCGCTCTACGGAGTCACCTAGTGCAG”, with 9930 fluorescence intensity (a.u.); and “TGTGTTGGCTGCCATCCTATGCACCTACCTACACCTCCCTCGGAGTCACCTAGTGCAG”, with 9620 fluorescence intensity (a.u.).
Then “CGATCACCATCAACACAAGCTATATCTCGATCGATCGCCACGGAGTCACCTAGTGCAG”, with 8060 fluorescence intensity (a.u.); and “GGGCTGCCTCCATCGTCATCGATCCATCTCCGTATCTCTCCGGAGTCACCTAGTGCAG”, with 11700 fluorescence intensity (a.u.).
For “CCCGGCCTTGTCCTCCGTGCTCCGCGACGGCCGCTTCCCGCGGAGTCACCTAGTGCAG”, the binding signal is 9710 fluorescence intensity (a.u.).
In the case of “GTCCCGTCGCAATCATGTTAACCTCATCCTCATTCGTCACCGGAGTCACCTAGTGCAG” it was 15900 fluorescence intensity (a.u.).
Turning to “ATCGCCAGCCTGACCTGCTGCCCGCACCCAAAAATATCCCCGGAGTCACCTAGTGCAG”, the binding signal was 8200 fluorescence intensity (a.u.).
On to “TTCATCGTGCTTACGCCCACCTACGGCCTCGACTTCTTCCCGGAGTCACCTAGTGCAG”, for which the binding signal is 12600 fluorescence intensity (a.u.).
In the case of “CATTTTCCGTTTTCGTGTCATCTTTATCAACATATGCACGCGGAGTCACCTAGTGCAG”, the binding signal was 9060 fluorescence intensity (a.u.).
Then “ATACATTACAAAAACCATGTTATGTCTTTCTCTTTCAATCCGGAGTCACCTAGTGCAG”, with 8530 fluorescence intensity (a.u.).
In the case of “TCGCCCTACCGCCGTCGTCGCTGTCCCGCTGGCCGCTGCTCGGAGTCACCTAGTGCAG” it was 10800 fluorescence intensity (a.u.); in that of “CCTTAGGTTGAGCATATACTCATTTTTAGTGCATCTTTTACGGAGTCACCTAGTGCAG”, 11600 fluorescence intensity (a.u.); in that of “ATATATATATATATATATATATATATATTAATGAATCGCTCGGAGTCACCTAGTGCAG”, 9340 fluorescence intensity (a.u.).
Consider “TTCATATTTTCACCGTTTGGGTAGAGTGGTGGTGGGGTGTCGGAGTCACCTAGTGCAG”, for which the binding signal was 10400 fluorescence intensity (a.u.).
In the case of “AGAGATGGTAGTGGTAAAGCGGAGGAGGGGTGGGGTGTTGCGGAGTCACCTAGTGCAG” it was 16700 fluorescence intensity (a.u.); in that of “GTACACACTCTTGCATAGTGATCACAATGTTATATTCTTTCGGAGTCACCTAGTGCAG”, 8060 fluorescence intensity (a.u.); in that of “GTTAATGAACCGTTCCGTTTTCCGTGTTACTGTAGCGCGCCGGAGTCACCTAGTGCAG”, 8220 fluorescence intensity (a.u.).
For “TCTGCATGCCTCCGATTGCCTTCTCATGTTGATGTGAACACGGAGTCACCTAGTGCAG”, the binding signal is 8360 fluorescence intensity (a.u.).

These data come from paper PMC7819943, “Rice protein-binding microarrays: a tool to detect cis-acting elements near promoter regions in rice”.
